The target in assay [1] is T1, zebrafish MDA5, Flag-tagged (Flag-DrMDA5) (zebrafish).
T1 sequence: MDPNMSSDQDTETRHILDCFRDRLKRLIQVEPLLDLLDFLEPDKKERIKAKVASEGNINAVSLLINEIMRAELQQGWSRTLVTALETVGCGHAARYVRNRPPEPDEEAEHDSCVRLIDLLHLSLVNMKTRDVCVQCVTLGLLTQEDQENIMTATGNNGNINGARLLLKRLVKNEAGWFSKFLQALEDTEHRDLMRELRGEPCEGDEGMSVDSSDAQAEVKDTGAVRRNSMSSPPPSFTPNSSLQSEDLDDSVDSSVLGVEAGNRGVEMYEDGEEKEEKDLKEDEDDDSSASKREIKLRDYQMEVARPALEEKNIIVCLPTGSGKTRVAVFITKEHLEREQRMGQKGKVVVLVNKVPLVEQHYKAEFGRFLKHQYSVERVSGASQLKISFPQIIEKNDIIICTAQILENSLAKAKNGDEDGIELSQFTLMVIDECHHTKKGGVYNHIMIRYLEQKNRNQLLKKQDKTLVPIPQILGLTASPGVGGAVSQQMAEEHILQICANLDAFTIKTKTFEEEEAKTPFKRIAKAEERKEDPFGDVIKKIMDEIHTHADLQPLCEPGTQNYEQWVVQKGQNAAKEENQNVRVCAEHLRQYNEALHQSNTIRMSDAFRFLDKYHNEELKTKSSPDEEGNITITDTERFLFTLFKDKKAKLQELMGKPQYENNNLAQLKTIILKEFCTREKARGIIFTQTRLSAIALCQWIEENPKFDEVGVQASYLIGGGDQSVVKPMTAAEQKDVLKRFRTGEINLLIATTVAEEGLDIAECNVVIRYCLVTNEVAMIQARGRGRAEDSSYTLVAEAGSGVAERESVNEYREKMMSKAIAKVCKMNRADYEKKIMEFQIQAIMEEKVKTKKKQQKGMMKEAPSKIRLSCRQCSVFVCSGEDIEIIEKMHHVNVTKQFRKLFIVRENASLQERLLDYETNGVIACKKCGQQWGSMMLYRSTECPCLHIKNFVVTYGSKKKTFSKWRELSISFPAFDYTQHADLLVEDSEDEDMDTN
The assay is described as follows: co-IP; HEK293T cells co-transfected (5 ug each), with or without poly(I:C) at 200 ng/ml; lysates immunoprecipitated with anti-Flag Ab, blot with anti-myc Ab.

The target of assay [2] is in vitro-translated zebrafish LGP2, Flag-tagged (DrLGP2-Flag) (zebrafish). The assay is described as follows: pull-down; 50 ul in vitro-translated DrLGP2-Flag incubated with in vitro-translated HA-tagged protein in NP40 lysis buffer at 4 C for 12 h; bead-bound complex blotted with anti-Tag Ab.

No constants are given. Whether binding was seen depends on the method and setting. In cells and extracts the contact can be indirect. Binding can be weak; no strength is given. Where a sequence is shown, tags or fusion partners need not be part of it.

Regarding zebrafish LGP2, myc-tagged (LGP2-myc), in assay [1], the binding entry was “binds”.

B1: in vitro-translated zebrafish MDA5, HA-tagged (DrMDA5-HA) (protein, UniProt A0A8M1P1G3 1-997)
chain: MDPNMSSDQDTETRHILDCFRDRLKRLIQVEPLLDLLDFLEPDKKERIKAKVASEGNINAVSLLINEIMRAELQQGWSRTLVTALETVGCGHAARYVRNRPPEPDEEAEHDSCVRLIDLLHLSLVNMKTRDVCVQCVTLGLLTQEDQENIMTATGNNGNINGARLLLKRLVKNEAGWFSKFLQALEDTEHRDLMRELRGEPCEGDEGMSVDSSDAQAEVKDTGAVRRNSMSSPPPSFTPNSSLQSEDLDDSVDSSVLGVEAGNRGVEMYEDGEEKEEKDLKEDEDDDSSASKREIKLRDYQMEVARPALEEKNIIVCLPTGSGKTRVAVFITKEHLEREQRMGQKGKVVVLVNKVPLVEQHYKAEFGRFLKHQYSVERVSGASQLKISFPQIIEKNDIIICTAQILENSLAKAKNGDEDGIELSQFTLMVIDECHHTKKGGVYNHIMIRYLEQKNRNQLLKKQDKTLVPIPQILGLTASPGVGGAVSQQMAEEHILQICANLDAFTIKTKTFEEEEAKTPFKRIAKAEERKEDPFGDVIKKIMDEIHTHADLQPLCEPGTQNYEQWVVQKGQNAAKEENQNVRVCAEHLRQYNEALHQSNTIRMSDAFRFLDKYHNEELKTKSSPDEEGNITITDTERFLFTLFKDKKAKLQELMGKPQYENNNLAQLKTIILKEFCTREKARGIIFTQTRLSAIALCQWIEENPKFDEVGVQASYLIGGGDQSVVKPMTAAEQKDVLKRFRTGEINLLIATTVAEEGLDIAECNVVIRYCLVTNEVAMIQARGRGRAEDSSYTLVAEAGSGVAERESVNEYREKMMSKAIAKVCKMNRADYEKKIMEFQIQAIMEEKVKTKKKQQKGMMKEAPSKIRLSCRQCSVFVCSGEDIEIIEKMHHVNVTKQFRKLFIVRENASLQERLLDYETNGVIACKKCGQQWGSMMLYRSTECPCLHIKNFVVTYGSKKKTFSKWRELSISFPAFDYTQHADLLVEDSEDEDMDTN
For the molecule B1, in assay [2], the binding entry was “binds”.
